“Also recorded” adds a separate entry of the source. At least one structure is not confirmed: it was looked up by name or label, or the drawing left a doubt.
Tested on: human adipose-derived stem cells (hADSCs)
Assay: Neurogenesis (neuronal differentiation) of hADSCs in serum-free neuronal differentiation medium, phase contrast microscopy
Format: cell-based
Conditions: DHA at 20 μM (positive control), FIG. 1B
Experimental: This example describes the neurogenesis of hADSCs by ursolic acid as compared to DHA (positive control) and hADSCs cultured in the absence of either ursolic acid and DHA (negative control). Ursolic acid was purchased from Sigma-Aldrich (Cat. No. U6753) and diluted in 95% ethanol to a concentration of […], giving a clear faint yellow stick solution that was then stored at −20° C.
hADSCs were purchased from Invitrogen®, also known as Life Technologies, of Carlsbad, Calif., U.S.A., and were cultured as near confluent monolayers in 100 mm culture plates within a maintenance medium consisting of Complete MesenPro RS™ medium with growth supplement and L-glutamine, also obtained from Invitrogen®. The process of culturing, passage, and seeding the hADSCs is described below. The cells were then subjected to removal and reseeded at a density of 0.5-1×10^4 cells/mL onto a 24-well culture plate with poly-L-ornithine and bovine plasma fibronectin coating. The culture medium is the same as the aforementioned maintenance medium. Three days after seeding, the culture medium was changed to a neuronal differentiation medium.
The subculture of hADSCs was performed when cell culture reached confluence. […]

**Q.** `CC/C=C\C/C=C\C/C=C\C/C=C\C/C=C\C/C=C\CCC(=O)O` [DHA, docosahexaenoic acid] was tested. Which “neuronal differentiation of hADSCs (neuronal cell morphology)” value did it give?
**A.** Its value is “a few of the hADSCs changed dramatically into a neuronal cell morphology; also recorded: underwent neuronal differentiation to a neuronal cell morphology”.
